Values from PubChem BioAssay AID1508597 (Cure First, 2020)

Test: 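Genes whose silencing sensitises or protects ovarian cancer cells against rucaparib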 (primary screen)
Cells: human ovarian carcinoma lines grown from tumours: OCI-P5x (papillary serous) and OCI-C5x (clear cell)
Reagents: siRNA pool against human genes, 1.25 pmol siRNA per well
Time to read-out: 72 h or 96 h, depending on the cell culture
Treatment: rucaparib 20 µM (about IC30) or vehicle, present until read-out
Rucaparib or vehicle: Rucaparib
Cell line: OCI-C5x (clear cell)
Measured: 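ATP luminescence measured at 72 or 96 h according to the culture, then normalised and expressed as percent viability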
Direction: viability, normalised: higher = more viable cells remaining
Call rule: 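Active when normalised viability falls below 80 percent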
Meaning of the calls: active = viability under 80%; inactive = viability 80% or more
Shown is an unselected part of the about 2,100 reagents, in one setting of the screen. 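Calls flag viability under 80% in either arm, not effects specific to rucaparib; the reference for percent is not stated.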 A reagent listed more than once was tested more than once; the source does not tell the runs apart. The record does not give: the 100% reference.

gene symbol | technical replicate | viability, normalised (%) | Call
MBTD1 (GeneID 54799) | 1 | 34.2 | active
MBTD1 (GeneID 54799) | 2 | 28.7 | active
MBTD1 (GeneID 54799) | 3 | 41.3 | active
CD79A (GeneID 973) | 1 | 40.5 | active
CD79A (GeneID 973) | 2 | 44.8 | active
CD79A (GeneID 973) | 3 | 41.7 | active
TSSK4 (GeneID 283629) | 1 | 59.7 | active
TSSK4 (GeneID 283629) | 2 | 35.3 | active
TSSK4 (GeneID 283629) | 3 | 49.3 | active
PDE8A (GeneID 5151) | 1 | 63.7 | active
PDE8A (GeneID 5151) | 2 | 56.9 | active
PDE8A (GeneID 5151) | 3 | 62.1 | active
DCK (GeneID 1633) | 1 | 56.3 | active
DCK (GeneID 1633) | 1 | 48.6 | active
DCK (GeneID 1633) | 2 | 63 | active
DCK (GeneID 1633) | 2 | 49.7 | active
DCK (GeneID 1633) | 3 | 60 | active
DCK (GeneID 1633) | 3 | 66.3 | active
SOD2 (GeneID 6648) | 1 | 45.2 | active
SOD2 (GeneID 6648) | 2 | 34.7 | active
SOD2 (GeneID 6648) | 3 | 54 | active

In a second layout: 6 of the entries above.
gene symbol	technical replicate	viability, normalised (%)	Call
CD79A (GeneID 973)	1	40.5	active
CD79A (GeneID 973)	2	44.8	active
CD79A (GeneID 973)	3	41.7	active
TSSK4 (GeneID 283629)	1	59.7	active
TSSK4 (GeneID 283629)	2	35.3	active
TSSK4 (GeneID 283629)	3	49.3	active

Further results follow.
gene symbol | technical replicate | viability, normalised (%) | Call
CDK9 (GeneID 1025) | 1 | 41.4 | active
CDK9 (GeneID 1025) | 2 | 47.3 | active
CDK9 (GeneID 1025) | 3 | 49.1 | active
PDE10A (GeneID 10846) | 1 | 41.2 | active
PDE10A (GeneID 10846) | 2 | 44.7 | active
PDE10A (GeneID 10846) | 3 | 31.3 | active
EPHA2 (GeneID 1969) | 1 | 43.3 | active
EPHA2 (GeneID 1969) | 2 | 50.1 | active
EPHA2 (GeneID 1969) | 3 | 43.4 | active
PLCH1 (GeneID 23007) | 1 | 82 | inactive
PLCH1 (GeneID 23007) | 2 | 66.3 | active
PLCH1 (GeneID 23007) | 3 | 57.1 | active
FGFR3 (GeneID 2261) | 1 | 48.9 | active
FGFR3 (GeneID 2261) | 2 | 48.2 | active
FGFR3 (GeneID 2261) | 3 | 60.7 | active
NEK2 (GeneID 4751) | 1 | 75.2 | active
NEK2 (GeneID 4751) | 1 | 61.8 | active
NEK2 (GeneID 4751) | 2 | 66.6 | active
NEK2 (GeneID 4751) | 2 | 74.5 | active
NEK2 (GeneID 4751) | 3 | 76.5 | active
NEK2 (GeneID 4751) | 3 | 57.2 | active
RALB (GeneID 5899) | 1 | 69.9 | active
RALB (GeneID 5899) | 2 | 69 | active
RALB (GeneID 5899) | 3 | 57.4 | active
GLRA2 (GeneID 2742) | 1 | 41.6 | active
GLRA2 (GeneID 2742) | 2 | 36.5 | active
GLRA2 (GeneID 2742) | 3 | 38 | active
NAP1L5 (GeneID 266812) | 1 | 45.1 | active
NAP1L5 (GeneID 266812) | 2 | 57.1 | active
NAP1L5 (GeneID 266812) | 3 | 50.8 | active
PRPS1 (GeneID 5631) | 1 | 41.9 | active
PRPS1 (GeneID 5631) | 2 | 50.6 | active
PRPS1 (GeneID 5631) | 3 | 39.6 | active
TSPYL4 (GeneID 23270) | 1 | 57.9 | active
TSPYL4 (GeneID 23270) | 2 | 48.9 | active
TSPYL4 (GeneID 23270) | 3 | 31.9 | active
